Drawing on PMC2905418, “High-affinity consensus binding of target RNAs by the STAR/GSG proteins GLD-1, STAR-2 and Quaking”, this text covers binding result and Kd for 3 sequences.

The exact form of at least one protein or probe is not confirmed. For part of these data: Weaker means in comparison with the reference protein, sequence or condition of that experiment. For part of these data: Protein sequences can lack the tags named with them.

One data set relates to STAR-2-STAR (C. elegans). In words: competition FP. To be noted: probe C21A TGE; 10 mM Tris pH 8.0, 25 mM NaCl, 0.1 mM EDTA, 0.1 mg/mL tRNA, 5 ug/mL heparin, 0.01% IGEPAL CA630, room temperature, 3 h; EMSA gel 6% native, 0.5x TBE, 4 C; recombinant protein; protein details: N-terminal MBP fusion (pMal-c2x); label: unlabeled competitor.
The next data set deals with T1, Qk-1-STAR (mouse) (UniProt Q9QYS9).
T1 sequence (looked up, limits assumed): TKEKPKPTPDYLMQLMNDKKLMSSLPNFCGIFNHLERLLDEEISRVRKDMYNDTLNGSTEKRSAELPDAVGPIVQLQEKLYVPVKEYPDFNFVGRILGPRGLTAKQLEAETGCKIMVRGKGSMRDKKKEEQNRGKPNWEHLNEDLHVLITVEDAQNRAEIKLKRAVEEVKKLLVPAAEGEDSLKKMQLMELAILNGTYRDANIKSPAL
In words: EMSA. To be noted: 10 mM Tris pH 8.0, 25 mM NaCl, 0.1 mM EDTA, 0.1 mg/mL tRNA, 5 ug/mL heparin, 0.01% IGEPAL CA630, room temperature, 3 h; EMSA gel 6% native, 0.5x TBE, 4 C; recombinant protein; protein details: MBP fusion; label: 5' 32P.

With “AUCUACUAAUAU [C21A (A21) half-site 12-mer]”, the binding result in the data set with STAR-2-STAR (C. elegans) is given as “binds”.
For “GACACACUAACCUCGGUGGAAAGUGGAACAU [MBP:2-3'm1]”, the Kd in the data set with Qk-1-STAR (mouse) was greater than 1 µM.
As to “AUCUACUCAUAU [WT TGE half-site 12-mer (14-25; A21C in the A21 background)]”, in the data set with STAR-2-STAR (C. elegans), the binding result is reported as “binds more weakly”.

As a reminder, the Kd is the free concentration of one partner at which half of the binding sites on the other are occupied at equilibrium, for simple one-to-one binding.
